# These are yes or no findings as the source states them, for the method shown. Binding seen in cells or lysates may run through a third protein. These calls come from enrichment with a bait or labelling near it, and not all partners need be listed.
# The chains behind the UniProt entries cited, without tags or fusion partners. Residues count along the entry.
# UniProt Q5RHP9: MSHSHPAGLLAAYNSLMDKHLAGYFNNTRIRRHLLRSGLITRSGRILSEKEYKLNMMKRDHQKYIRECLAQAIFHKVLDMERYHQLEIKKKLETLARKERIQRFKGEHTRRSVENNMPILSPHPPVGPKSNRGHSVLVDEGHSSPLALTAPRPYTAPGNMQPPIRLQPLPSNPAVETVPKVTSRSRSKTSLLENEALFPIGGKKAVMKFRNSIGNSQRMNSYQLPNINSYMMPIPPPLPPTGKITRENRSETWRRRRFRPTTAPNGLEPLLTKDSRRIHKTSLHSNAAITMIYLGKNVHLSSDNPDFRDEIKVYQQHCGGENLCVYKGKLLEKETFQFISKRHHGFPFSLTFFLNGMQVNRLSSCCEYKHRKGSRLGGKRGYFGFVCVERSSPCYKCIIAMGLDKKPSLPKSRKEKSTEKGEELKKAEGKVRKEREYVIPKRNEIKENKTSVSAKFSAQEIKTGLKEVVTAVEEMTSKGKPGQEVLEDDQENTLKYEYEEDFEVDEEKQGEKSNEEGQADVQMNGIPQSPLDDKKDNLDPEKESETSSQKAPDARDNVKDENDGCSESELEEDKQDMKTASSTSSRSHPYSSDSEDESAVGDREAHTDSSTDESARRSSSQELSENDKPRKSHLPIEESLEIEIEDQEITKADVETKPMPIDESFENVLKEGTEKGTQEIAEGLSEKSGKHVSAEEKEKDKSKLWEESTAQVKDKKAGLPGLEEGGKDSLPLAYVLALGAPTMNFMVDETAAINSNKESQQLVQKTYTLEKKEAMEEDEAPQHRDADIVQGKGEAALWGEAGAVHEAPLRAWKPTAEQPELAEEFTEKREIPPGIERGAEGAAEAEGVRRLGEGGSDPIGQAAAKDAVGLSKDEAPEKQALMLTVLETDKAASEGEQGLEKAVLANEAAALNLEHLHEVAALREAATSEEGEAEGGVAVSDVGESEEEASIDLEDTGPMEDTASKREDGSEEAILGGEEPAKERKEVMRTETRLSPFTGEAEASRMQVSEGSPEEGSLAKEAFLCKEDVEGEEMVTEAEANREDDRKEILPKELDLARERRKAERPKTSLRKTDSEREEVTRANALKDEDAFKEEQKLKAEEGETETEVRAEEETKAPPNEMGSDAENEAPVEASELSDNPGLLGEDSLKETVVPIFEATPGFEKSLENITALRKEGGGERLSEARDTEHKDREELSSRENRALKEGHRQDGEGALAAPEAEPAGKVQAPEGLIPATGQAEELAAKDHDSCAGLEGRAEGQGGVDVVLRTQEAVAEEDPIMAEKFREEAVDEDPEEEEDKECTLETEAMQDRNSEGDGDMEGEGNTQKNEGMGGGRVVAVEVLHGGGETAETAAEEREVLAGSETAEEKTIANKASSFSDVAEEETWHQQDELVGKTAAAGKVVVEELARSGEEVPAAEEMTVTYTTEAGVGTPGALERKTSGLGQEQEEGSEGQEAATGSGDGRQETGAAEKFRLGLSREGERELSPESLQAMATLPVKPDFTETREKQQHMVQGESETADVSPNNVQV
# UniProt Q2M2I8: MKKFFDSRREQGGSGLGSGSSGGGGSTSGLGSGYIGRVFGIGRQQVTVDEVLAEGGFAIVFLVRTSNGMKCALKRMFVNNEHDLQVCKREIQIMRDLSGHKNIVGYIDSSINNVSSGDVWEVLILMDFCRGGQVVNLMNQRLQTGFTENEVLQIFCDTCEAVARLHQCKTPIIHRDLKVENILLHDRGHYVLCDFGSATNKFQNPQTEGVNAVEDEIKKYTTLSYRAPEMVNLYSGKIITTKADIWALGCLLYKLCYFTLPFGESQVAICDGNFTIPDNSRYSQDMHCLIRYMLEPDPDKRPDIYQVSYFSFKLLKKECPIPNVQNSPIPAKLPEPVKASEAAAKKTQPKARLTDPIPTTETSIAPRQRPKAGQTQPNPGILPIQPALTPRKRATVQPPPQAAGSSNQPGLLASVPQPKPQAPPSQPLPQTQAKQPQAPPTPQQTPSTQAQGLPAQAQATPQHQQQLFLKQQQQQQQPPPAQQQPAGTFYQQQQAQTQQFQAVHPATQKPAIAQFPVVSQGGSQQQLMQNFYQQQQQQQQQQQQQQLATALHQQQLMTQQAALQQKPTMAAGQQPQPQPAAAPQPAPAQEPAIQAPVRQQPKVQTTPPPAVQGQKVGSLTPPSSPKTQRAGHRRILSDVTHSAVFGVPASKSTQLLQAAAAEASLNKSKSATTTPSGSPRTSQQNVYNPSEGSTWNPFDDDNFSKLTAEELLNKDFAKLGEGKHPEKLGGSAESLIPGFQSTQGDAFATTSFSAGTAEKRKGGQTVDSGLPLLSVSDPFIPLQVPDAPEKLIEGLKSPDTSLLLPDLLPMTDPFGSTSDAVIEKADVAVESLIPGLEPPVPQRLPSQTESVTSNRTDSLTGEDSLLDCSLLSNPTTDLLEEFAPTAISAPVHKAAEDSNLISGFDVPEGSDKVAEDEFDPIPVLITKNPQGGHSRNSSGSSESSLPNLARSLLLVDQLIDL
# UniProt O00443: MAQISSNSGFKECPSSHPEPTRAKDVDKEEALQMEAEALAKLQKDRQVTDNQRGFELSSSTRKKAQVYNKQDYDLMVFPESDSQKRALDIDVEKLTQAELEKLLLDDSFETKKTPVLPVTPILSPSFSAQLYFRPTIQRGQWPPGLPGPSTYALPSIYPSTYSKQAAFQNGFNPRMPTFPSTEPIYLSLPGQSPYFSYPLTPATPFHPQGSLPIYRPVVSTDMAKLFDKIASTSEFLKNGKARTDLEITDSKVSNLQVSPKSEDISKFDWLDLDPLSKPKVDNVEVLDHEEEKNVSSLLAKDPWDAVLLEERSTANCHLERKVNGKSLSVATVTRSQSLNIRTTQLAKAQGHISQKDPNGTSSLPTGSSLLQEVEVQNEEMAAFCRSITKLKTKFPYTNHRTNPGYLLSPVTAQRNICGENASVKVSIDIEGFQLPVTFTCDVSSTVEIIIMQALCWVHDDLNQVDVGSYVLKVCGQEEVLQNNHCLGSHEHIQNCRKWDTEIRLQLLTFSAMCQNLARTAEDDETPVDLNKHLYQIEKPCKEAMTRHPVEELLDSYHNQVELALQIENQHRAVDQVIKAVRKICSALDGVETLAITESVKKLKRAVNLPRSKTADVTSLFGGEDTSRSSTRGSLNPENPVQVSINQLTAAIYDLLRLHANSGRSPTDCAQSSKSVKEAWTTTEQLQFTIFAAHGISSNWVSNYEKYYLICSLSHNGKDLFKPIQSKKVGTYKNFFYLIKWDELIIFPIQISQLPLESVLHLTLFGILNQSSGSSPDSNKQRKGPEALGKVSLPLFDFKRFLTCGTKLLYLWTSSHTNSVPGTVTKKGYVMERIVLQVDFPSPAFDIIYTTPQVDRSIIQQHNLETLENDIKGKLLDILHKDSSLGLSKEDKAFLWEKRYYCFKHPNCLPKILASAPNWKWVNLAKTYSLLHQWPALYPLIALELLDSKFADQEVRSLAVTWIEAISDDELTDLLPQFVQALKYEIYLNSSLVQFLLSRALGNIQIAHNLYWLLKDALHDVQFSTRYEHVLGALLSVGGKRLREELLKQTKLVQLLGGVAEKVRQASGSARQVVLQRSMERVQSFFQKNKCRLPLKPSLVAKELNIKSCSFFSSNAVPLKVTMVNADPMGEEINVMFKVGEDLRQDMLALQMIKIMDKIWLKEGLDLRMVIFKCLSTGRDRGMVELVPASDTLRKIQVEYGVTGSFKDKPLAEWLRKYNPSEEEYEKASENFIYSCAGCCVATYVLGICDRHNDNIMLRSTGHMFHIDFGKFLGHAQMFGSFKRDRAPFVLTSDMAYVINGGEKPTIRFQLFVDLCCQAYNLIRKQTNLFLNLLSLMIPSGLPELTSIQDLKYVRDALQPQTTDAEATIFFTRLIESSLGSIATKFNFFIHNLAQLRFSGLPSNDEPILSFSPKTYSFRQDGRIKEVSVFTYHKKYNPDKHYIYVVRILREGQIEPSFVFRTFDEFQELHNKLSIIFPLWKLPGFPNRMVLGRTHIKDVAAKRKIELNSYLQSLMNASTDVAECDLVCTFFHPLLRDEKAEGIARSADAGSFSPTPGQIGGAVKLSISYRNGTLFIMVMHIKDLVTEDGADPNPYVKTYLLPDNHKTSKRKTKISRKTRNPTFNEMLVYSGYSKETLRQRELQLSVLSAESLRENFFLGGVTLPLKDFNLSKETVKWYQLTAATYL
# UniProt Q9UM73, residues 19-1620: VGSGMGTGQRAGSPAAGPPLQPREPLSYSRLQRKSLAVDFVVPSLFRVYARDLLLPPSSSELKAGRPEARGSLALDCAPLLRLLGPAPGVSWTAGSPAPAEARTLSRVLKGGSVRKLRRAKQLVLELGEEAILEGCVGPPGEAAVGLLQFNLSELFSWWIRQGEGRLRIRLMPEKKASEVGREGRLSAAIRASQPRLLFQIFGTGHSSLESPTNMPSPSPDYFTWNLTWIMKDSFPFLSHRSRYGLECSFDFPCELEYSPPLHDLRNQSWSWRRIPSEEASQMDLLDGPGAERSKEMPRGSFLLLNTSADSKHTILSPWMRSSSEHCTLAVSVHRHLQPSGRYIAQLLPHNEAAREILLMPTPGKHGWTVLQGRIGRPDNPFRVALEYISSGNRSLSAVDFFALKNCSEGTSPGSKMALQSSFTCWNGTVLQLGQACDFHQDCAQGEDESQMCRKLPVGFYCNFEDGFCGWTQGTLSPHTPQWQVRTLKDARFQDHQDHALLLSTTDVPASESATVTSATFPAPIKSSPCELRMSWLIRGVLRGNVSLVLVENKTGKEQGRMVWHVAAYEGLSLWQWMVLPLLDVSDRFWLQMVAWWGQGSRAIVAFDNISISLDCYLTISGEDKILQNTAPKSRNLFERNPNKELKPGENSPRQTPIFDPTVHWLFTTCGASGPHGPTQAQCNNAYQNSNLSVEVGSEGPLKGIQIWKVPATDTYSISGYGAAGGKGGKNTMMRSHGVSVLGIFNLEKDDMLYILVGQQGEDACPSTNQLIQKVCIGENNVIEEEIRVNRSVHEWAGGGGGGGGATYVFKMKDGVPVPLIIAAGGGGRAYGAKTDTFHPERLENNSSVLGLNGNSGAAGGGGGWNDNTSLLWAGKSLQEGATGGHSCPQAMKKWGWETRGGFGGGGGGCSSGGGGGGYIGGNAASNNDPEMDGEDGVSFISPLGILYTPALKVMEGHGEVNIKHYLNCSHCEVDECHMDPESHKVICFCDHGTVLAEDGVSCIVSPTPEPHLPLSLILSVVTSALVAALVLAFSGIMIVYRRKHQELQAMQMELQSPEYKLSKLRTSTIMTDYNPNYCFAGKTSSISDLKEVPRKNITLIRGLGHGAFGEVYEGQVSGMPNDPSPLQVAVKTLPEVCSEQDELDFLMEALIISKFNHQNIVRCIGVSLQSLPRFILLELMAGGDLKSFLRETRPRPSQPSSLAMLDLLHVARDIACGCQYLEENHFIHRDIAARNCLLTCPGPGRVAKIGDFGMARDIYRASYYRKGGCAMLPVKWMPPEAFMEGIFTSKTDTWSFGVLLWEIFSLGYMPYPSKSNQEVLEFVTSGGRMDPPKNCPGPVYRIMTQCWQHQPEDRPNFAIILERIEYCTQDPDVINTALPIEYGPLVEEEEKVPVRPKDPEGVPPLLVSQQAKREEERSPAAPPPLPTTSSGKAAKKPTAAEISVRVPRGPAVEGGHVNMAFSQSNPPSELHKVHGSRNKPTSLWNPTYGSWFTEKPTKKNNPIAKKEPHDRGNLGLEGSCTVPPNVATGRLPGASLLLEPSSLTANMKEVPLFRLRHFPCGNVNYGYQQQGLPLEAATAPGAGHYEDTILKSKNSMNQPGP
# UniProt P02545, residues 1-646: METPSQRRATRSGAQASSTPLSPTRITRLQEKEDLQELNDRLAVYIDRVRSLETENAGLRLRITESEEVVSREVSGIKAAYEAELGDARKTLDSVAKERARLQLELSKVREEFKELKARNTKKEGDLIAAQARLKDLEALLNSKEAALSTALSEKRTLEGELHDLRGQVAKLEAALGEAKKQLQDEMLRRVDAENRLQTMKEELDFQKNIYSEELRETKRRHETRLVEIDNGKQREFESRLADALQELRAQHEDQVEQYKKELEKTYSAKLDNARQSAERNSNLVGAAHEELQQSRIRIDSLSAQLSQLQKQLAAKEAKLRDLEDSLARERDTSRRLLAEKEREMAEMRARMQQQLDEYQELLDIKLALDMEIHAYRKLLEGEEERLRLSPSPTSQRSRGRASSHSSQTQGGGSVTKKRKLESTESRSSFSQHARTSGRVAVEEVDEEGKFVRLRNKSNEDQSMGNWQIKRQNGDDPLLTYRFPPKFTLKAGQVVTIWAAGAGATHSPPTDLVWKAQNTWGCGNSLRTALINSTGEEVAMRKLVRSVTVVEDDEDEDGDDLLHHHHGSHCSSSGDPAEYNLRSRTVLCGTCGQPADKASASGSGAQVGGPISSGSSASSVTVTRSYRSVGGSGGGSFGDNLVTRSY
# Target: glutamate-rich 3 (ERICH3), endogenous in SK-N-SH cells (human (endogenous in SK-N-SH)) (UniProt Q5RHP9)
# Assay: affinity purification with mass spectrometry; Co-IP with ERICH3 antibody (Ab-Ex 14) from SK-N-SH cells, non-specific rabbit IgG as negative control; SDS-PAGE, silver staining, bands cut out for MS
row,Molecule,binding
1,AP2 associated kinase 1 (AAK1) (from UniProt Q2M2I8 1-961),binds
2,adaptor related protein complex 2 subunit alpha 2 (AP2A2) (from UniProt O94973 1-939),binds
3,clathrin heavy chain (CLTC) (from UniProt Q00610 1-1675),binds
4,myosin heavy chain 10 (from UniProt P35580 1-1976),binds
5,phosphatidylinositol-4-phosphate 3-kinase catalytic subunit type 2 alpha (PIK3C2A) (from UniProt O00443 1-1686),binds
6,"POF1B (protein, UniProt Q8WVV4 1-589) MSSSYWSETSSSSCGTQQLPEVLQCQPQHYHCYHQSSQAQQPPEKNVVYERVRTYSGPMNKVVQALDPFNSREVLSPLKTTSSYQNLVWSDHSQELHSPTLKISTCAPSTLHITQNTEQELHSPTVKLTTYPQTTIRKYVVQNPEQEPLSQFLRGSHFFPGNNVIYEKTIRKVEKLNTDQGCHPQAQCHHHIIQQPQVIHSAHWQQPDSSQQIQAITGNNPISTHIGNELCHSGSSQICEQVIIQDDGPEKLDPRYFGELLADLSRKNTDLYHCLLEHLQRIGGSKQDFESTDESEDIESLIPKGLSEFTKQQIRYILQMRGMSDKSLRLVLSTFSNIREELGHLQNDMTSLENDKMRLEKDLSFKDTQLKEYEELLASVRANNHQQQQGLQDSSSKCQALEENNLSLRHTLSDMEYRLKELEYCKRNLEQENQNLRMQVSETCTGPMLQAKMDEIGNHYTEMVKNLRMEKDREICRLRSQLNQYHKDVSKREGSCSDFQFKLHELTSLLEEKDSLIKRQSEELSKLRQEIYSSHNQPSTGGRTTITTKKYRTQYPILGLLYDDYEYIPPGSETQTIVIEKTEDKYTCP",binds
7,"TMOD1 (protein, UniProt P28289 1-359) MSYRRELEKYRDLDEDEILGALTEEELRTLENELDELDPDNALLPAGLRQKDQTTKAPTGPFKREELLDHLEKQAKEFKDREDLVPYTGEKRGKVWVPKQKPLDPVLESVTLEPELEEALANASDAELCDIAAILGMHTLMSNQQYYQALSSSSIMNKEGLNSVIKPTQYKPVPDEEPNSTDVEETLERIKNNDPKLEEVNLNNIRNIPIPTLKAYAEALKENSYVKKFSIVGTRSNDPVAYALAEMLKENKVLKTLNVESNFISGAGILRLVEALPYNTSLVEMKIDNQSQPLGNKVEMEIVSMLEKNATLLKFGYHFTQQGPRLRASNAMMNNNDLVRKRRLADLTGPIIPKCRSGV",binds

# The remaining lines, values ahead:
row,binding,Molecule
1,binds,ALK (from UniProt Q9UM73 19-1620)
2,binds,CUX1 (from UniProt P39880 1-1505)
3,binds,LMNA (from UniProt P02545 1-646)
4,binds,"TMPO (protein, UniProt P42166 1-694) MPEFLEDPSVLTKDKLKSELVANNVTLPAGEQRKDVYVQLYLQHLTARNRPPLPAGTNSKGPPDFSSDEEREPTPVLGSGAAAAGRSRAAVGRKATKKTDKPRQEDKDDLDVTELTNEDLLDQLVKYGVNPGPIVGTTRKLYEKKLLKLREQGTESRSSTPLPTISSSAENTRQNGSNDSDRYSDNEEGKKKEHKKVKSTRDIVPFSELGTTPSGGGFFQGISFPEISTRPPLGSTELQAAKKVHTSKGDLPREPLVATNLPGRGQLQKLASERNLFISCKSSHDRCLEKSSSSSSQPEHSAMLVSTAASPSLIKETTTGYYKDIVENICGREKSGIQPLCPERSHISDQSPLSSKRKALEESESSQLISPPLAQAIRDYVNSLLVQGGVGSLPGTSNSMPPLDVENIQKRIDQSKFQETEFLSPPRKVPRLSEKSVEERDSGSFVAFQNIPGSELMSSFAKTVVSHSLTTLGLEVAKQSQHDKIDASELSFPFHESILKVIEEEWQQVDRQLPSLACKYPVSSREATQILSVPKVDDEILGFISEATPLGGIQAASTESCNQQLDLALCRAYEAAASALQIATHTAFVAKAMQADISQAAQILSSDPSRTHQALGILSKTYDAASYICEAAFDEVKMAAHTMGNATVGRRYLWLKDCKINLASKNKLASTPFKGGTLFGGEVCKVIKKRGNKH"
